These are yes or no findings as the source states them, for the method shown. A result given as binding can be weak or reduced; the word gives no strength.
Target: human RORγt ligand binding domain (264–518), His6-tagged (human)
Test: FRET or BRET; TR-FRET in solution: 5 nM His6-tagged RORγt-LBD, 90 nM biotinylated RIP140 co-activator peptide, 0.45 nM Cy5-labelled streptavidin, 1.5 nM Europium-labelled anti-His6 antibody; 1 hr incubation with compound; emissions at 615 nm and 665 nm; both purified

binding: binds
Binder: NSHQKVTLLQLLLGHKNEEN (biotinyl-NH-Ahx at the N-terminus; C-terminal amide (CONH2)) [biotinylated RIP140 derived co-activator peptide]

Source: publication PMC5695821, “Pharmacological inhibition of RORγt suppresses the Th17 pathway and alleviates arthritis in vivo” (PLoS ONE, 2017)
